Results on one molecule are retold here after US4946964A, “Photographic compounds” (Polaroid Corporation, priority 1987, dated 1990).

The series can be described thus: sensitometry of diffusion transfer film unit, Example XX (compound in dye layer). The text has this:
The experiment of Example XIX was repeated with the exception that compound V was incorporated in the dye layer at the same coverage and was not present in the silver halide emulsion layer.

Molecules are shown by their SMILES.

`CC(CSc1nnnn1-c1ccc(O)cc1)=NO` [V]: for the setting “45° F.”, the Dmax was determined as 2.43, the Dmin was found to be 0.24 and the Speed was 1.09. Where the note is “75° F.”, the Dmax is 2.45, the Dmin turned out to be 0.19 and the Speed is listed as 1.18. Where the note is “105° F.”, this molecule had a Dmax of 2.12, a Dmin of 0.15 and a Speed of 1.31.
